Taken from: PubChem BioAssay AID1259425 (University of Nebraska Medical Center, 2018)
The whole screen tested about 14,000 reagents; this is a part drawn at random. A reagent listed more than once was tested more than once; the source does not tell the runs apart. Not stated in the record: the time to read-out.

Assay: 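Seek colon cancer weak points whose silencing resembles KSR1 loss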 (primary screen)
Cell system: HCT116 human colon cancer cells
Knock-down reagent: siRNA pool against human genes, 50 nM siRNA
Measured: 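After 50 nM siRNA pool, branched-DNA assay measures six marker transcripts per well, minus blank, normalised to the geometric mean of two housekeeping transcripts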
Reading the numbers: BNIP3L mRNA: higher = more BNIP3L transcript after knockdown; NDRG1 mRNA: higher = more NDRG1 transcript after knockdown; BNIP3 mRNA: higher = more BNIP3 transcript after knockdown; ALDOC mRNA: higher = more ALDOC transcript after knockdown; ACSL5 mRNA: higher = more ACSL5 transcript after knockdown

target gene	BNIP3L mRNA, set 1	NDRG1 mRNA, set 1	BNIP3 mRNA, set 1	ALDOC mRNA, set 1	ACSL5 mRNA, set 1
HTR1A (5-hydroxytryptamine receptor 1A)	0.125	0.617	0.336	0.0199	0.364
CPXM1 (carboxypeptidase X, M14 family member 1)	0.0549	0.154	0.37	0.0235	0.41
PRR7 (proline rich 7, synaptic)	0.198	0.331	0.366	0.0433	0.134
RHBDD2 (rhomboid domain containing 2)	0.174	0.0992	0.269	0.0483	0.297
BCAR1 (BCAR1 scaffold protein, Cas family member)	0.146	0.287	0.263	0.0206	0.266
LMX1B (LIM homeobox transcription factor 1 beta)	0.116	0.216	0.298	0.0148	0.143
ZNF224 (zinc finger protein 224)	0.116	0.108	0.294	0.0223	0.171
ZNF224 (zinc finger protein 224)	0.115	0.156	0.327	0.0171	0.144
DIO3 (iodothyronine deiodinase 3)	0.0863	0.277	0.363	0.022	0.117
SAA4 (serum amyloid A4, constitutive)	0.102	0.131	0.305	0.0496	0.156
TSHZ1 (teashirt zinc finger homeobox 1)	0.188	0.2	0.501	0.0642	0.216
PSMB1 (proteasome 20S subunit beta 1)	0.508	1.02	0.672	0.0501	0.389
OR7E5P (olfactory receptor family 7 subfamily E member 5 pseudogene)	0.191	0.126	0.305	0.0269	0.06
HNRNPU (heterogeneous nuclear ribonucleoprotein U)	0.097	0.213	0.3	0.0228	0.117
TENT5C (terminal nucleotidyltransferase 5C)	0.136	0.185	0.338	0.0206	0.195
SLC22A14	0.128	0.195	0.356	0.0353	0.111
KRTAP3-2 (keratin associated protein 3-2)	0.388	0.625	0.364	0.153	0.559
RAB6C (RAB6C, member RAS oncogene family)	0.0775	0.113	0.222	0.0152	0.116
EXOC5 (exocyst complex component 5)	0.105	0.216	0.256	0.025	0.101
RBM38 (RNA binding motif protein 38)	0.0434	0.0414	0.0721	0.000407	0.0338

In a second layout: 2 of the entries above.
{"target gene": "LMX1B (LIM homeobox transcription factor 1 beta)", "BNIP3L mRNA, set 1": 0.116, "NDRG1 mRNA, set 1": 0.216, "BNIP3 mRNA, set 1": 0.298, "ALDOC mRNA, set 1": 0.0148, "ACSL5 mRNA, set 1": 0.143}
{"target gene": "ZNF224 (zinc finger protein 224)", "BNIP3L mRNA, set 1": 0.116, "NDRG1 mRNA, set 1": 0.108, "BNIP3 mRNA, set 1": 0.294, "ALDOC mRNA, set 1": 0.0223, "ACSL5 mRNA, set 1": 0.171}
